Measurements from publication PMC7499972.
Results are given in words; binding and its absence hold for the method and conditions named. Binding seen in cells or lysates may run through a third protein. Some binding calls cover weakened binding; strength is not graded here. Where a sequence is shown, tags or fusion partners need not be part of it.

Sequences of proteins named here, by UniProt entry; tags and fusion partners are left off.
UniProt Q92731: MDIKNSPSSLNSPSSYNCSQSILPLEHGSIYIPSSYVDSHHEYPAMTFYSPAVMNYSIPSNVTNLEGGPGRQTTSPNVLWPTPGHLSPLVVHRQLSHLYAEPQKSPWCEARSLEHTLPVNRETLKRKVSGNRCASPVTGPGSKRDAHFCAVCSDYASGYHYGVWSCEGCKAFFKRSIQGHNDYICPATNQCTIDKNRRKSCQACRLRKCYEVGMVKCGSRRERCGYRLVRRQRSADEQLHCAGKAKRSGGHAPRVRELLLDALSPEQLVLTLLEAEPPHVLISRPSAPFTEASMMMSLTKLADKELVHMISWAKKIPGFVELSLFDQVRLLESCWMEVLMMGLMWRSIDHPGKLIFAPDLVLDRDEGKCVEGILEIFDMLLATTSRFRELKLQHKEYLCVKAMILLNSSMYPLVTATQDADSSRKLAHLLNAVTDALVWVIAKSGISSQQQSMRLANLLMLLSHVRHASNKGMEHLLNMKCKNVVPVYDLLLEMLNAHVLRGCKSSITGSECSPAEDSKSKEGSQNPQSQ

Biological target: T1, Flag-CLPTM1L (cleft lip and palate transmembrane 1-like), wild type, from pCMV-CLPTM1L (human) (UniProt Q96KA5)
T1 sequence: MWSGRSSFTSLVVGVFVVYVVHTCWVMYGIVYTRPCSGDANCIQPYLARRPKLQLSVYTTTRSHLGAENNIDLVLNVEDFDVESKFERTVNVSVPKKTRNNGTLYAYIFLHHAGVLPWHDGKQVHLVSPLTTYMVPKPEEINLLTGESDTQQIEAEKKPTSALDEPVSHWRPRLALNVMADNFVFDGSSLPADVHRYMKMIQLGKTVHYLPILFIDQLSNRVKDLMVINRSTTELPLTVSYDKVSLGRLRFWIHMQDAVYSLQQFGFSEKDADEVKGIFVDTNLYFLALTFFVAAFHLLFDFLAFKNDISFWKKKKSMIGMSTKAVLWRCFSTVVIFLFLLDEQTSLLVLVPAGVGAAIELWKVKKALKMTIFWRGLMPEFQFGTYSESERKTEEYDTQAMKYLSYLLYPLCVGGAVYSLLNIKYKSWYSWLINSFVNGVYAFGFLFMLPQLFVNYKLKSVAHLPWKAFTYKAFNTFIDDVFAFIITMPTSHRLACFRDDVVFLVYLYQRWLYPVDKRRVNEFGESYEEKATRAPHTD
Assay: co-IP; A549 cells transfected and exposed to 4 Gy IR; lysis buffer 50 mmol/L Tris-HCl pH 8.0, 100 mmol/L NaCl, 1% Nonidet P-40; anti-ERβ or anti-Flag antibody with protein G agarose beads; washed six times; western blot

binding: binds
Substance: Estrogen receptor β (ERβ) in A549 cells (from UniProt Q92731 1-530)
